Measurements reported in PubChem BioAssay AID1159578 (Peter MacCallum Cancer Centre, 2015).
Purpose: 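Knock-downs that alter how fast lymphatic endothelial cells migrate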 (primary screen). System: human lymphatic endothelial cells. Reagent: siRNA pool against human genes, 40 nM. Timing: 48 h after transfection. Measurement: 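Cells stained with dye and imaged after a scratch; covered wound area and nuclei counted, duplicates averaged, migration set against mock wells and turned into a robust z-score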. Scale: migration robust z-score: higher = faster migration into the scratch; nuclei per well: higher = more cells in the well. Call rule: 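Migration changed when robust z exceeds 2 or falls below -2 and mean nuclei number is at least 3300; otherwise not called changed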. Meaning of the calls: active = migration changed; inactive = no migration change, or too few cells.
Here is a random part of about 18,000 deposited reagents. About 1,030 of them (5.7%) count as active. 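Inactive calls also include pools with fewer than 3300 nuclei, whose migration was not assessed.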 Raw values vary from plate to plate and are shown uncorrected. Further read-outs or replicates are left out here.

target,migration robust z-score,"nuclei per well, duplicate mean",outcome
BTC (GeneID 685),0.3,5060,inactive
H2BC13 (GeneID 8340),-0.01,4864,inactive
SLC18A3 (GeneID 6572),0.6,5834,inactive
ZMAT4 (GeneID 79698),0.04,6616,inactive
MT1F (GeneID 4494),1.02,5679,inactive
MYO3B (GeneID 140469),-1.69,4836,inactive
PCDHGA2 (GeneID 56113),0.8,6550,inactive
KCNK1 (GeneID 3775),-2.05,3804,active
MACROD1 (GeneID 28992),-0.46,5386,inactive
CSF3R (GeneID 1441),-1.03,3641,inactive
SMIM7 (GeneID 79086),-0.19,6998,inactive
UBXN11 (GeneID 91544),0.28,4761,inactive
HES3 (GeneID 390992),0.64,6002,inactive
RNF38 (GeneID 152006),0.26,5399,inactive
KATNAL2 (GeneID 83473),-0.68,7764,inactive
SLC61A1 (GeneID 84975),0.86,7749,inactive
ST6GALNAC6 (GeneID 30815),0.1,6522,inactive
AAGAB (GeneID 79719),1.01,5614,inactive
SMAP1 (GeneID 60682),-0.01,5221,inactive

Reagents above with an active call:
target,migration robust z-score,"nuclei per well, duplicate mean",outcome
KCNK1 (GeneID 3775),-2.05,3804,active

Continued.
target,migration robust z-score,"nuclei per well, duplicate mean",outcome
PPP2R3C (GeneID 55012),0.4,4918,inactive
NIPA2 (GeneID 81614),-0.93,4942,inactive
PANX1 (GeneID 24145),0.12,6162,inactive
PSMB5 (GeneID 5693),0.02,5762,inactive
CTSE (GeneID 1510),-0.39,4888,inactive
CLDND2 (GeneID 125875),-0.79,2564,inactive
SCGB2A1 (GeneID 4246),-0.73,3672,inactive
PROK2 (GeneID 60675),0.16,4699,inactive
ENPP1 (GeneID 5167),0.88,6429,inactive
SRD5A3 (GeneID 79644),2.08,7242,active
ZNF718 (GeneID 255403),1.94,5934,inactive
GLYATL2 (GeneID 219970),0.75,4368,inactive
GMPR (GeneID 2766),0.44,5290,inactive
PLG (GeneID 5340),0.65,5337,inactive
FAM117B (GeneID 150864),3.25,5404,active
IL1RAPL1 (GeneID 11141),-1.14,3855,inactive
EFHD1 (GeneID 80303),1.33,6609,inactive
CLDN5 (GeneID 7122),0,6148,inactive
HSPA1L (GeneID 3305),0.99,3284,inactive
MED30 (GeneID 90390),1.55,5332,inactive
